Where “and” joins values, the source holds several entries; their conditions need not be identical. Equal entries are not always repeated. The whole screen tested about 59,000 compounds, of which about 6,500 (11%) were called active. This list was built around the results that the source calls inconclusive (neither active nor inactive); the mix of calls is not that of the screen. Rule as the data show it: active = max dye-equivalent concentration above about 10 nM; inconclusive = mostly about 1.1 nM to 9.6 nM; inactive = weaker than that.
Experiment: qHTS Assay for Spectroscopic Profiling in A350 Spectral Region
Conditions: Compound autofluorescence, 340/450 nm, Alexa 350 dye-equivalents; stronger effect = higher value

Structure (SMILES)	max dye-equivalent concentration	outcome
COc1ccc(-n2c(=O)c(-c3cccs3)nc3cnc(OC)nc32)cc1	inactive	
COCCCNc1ccnc2c(Cl)cccc12	inconclusive: 5e-09 M	
COc1ccc(NS(=O)(=O)c2cc(C)ccc2C)cc1	inconclusive: 2.9e-09 M	
CN(C)S(=O)(=O)c1ccc(C(=O)N2CCCC2c2nc3ccccc3s2)cc1 (configuration not stated)	inconclusive: 1.1e-09 M	
Cc1onc(-c2ccccc2Cl)c1C(=O)N1CCN(c2nc3ccccc3s2)CC1	inconclusive: 1.3e-09 M	
CC(C)NC(=O)N1CCCC2(CCN(C(=O)c3cccc(F)c3)CC2)C1	inactive	
COCCn1c(=O)c(-c2ccccc2)nc2cncnc21	inconclusive: 1.6e-09 M	
O=C(CSc1ncccn1)NCc1ccccc1Cl	inconclusive: 1.2e-09 M	
COc1ccc(C(CNC(=O)C2CC(=O)N(Cc3ccc(C)cc3)C2)N(C)C)cc1 (configuration not stated)	inconclusive: 1.3e-09 M	
CC(=O)CN1Cc2ccccc2/C1=N\C(=O)Nc1ccccc1	inconclusive: 9.7e-09 M	
COCc1c(Br)c(C)nc(OCC(=O)O)c1C#N	inconclusive: 2.1e-09 M	
CN1c2ccccc2C(C)(C)C12CCCC(=O)N2 (configuration not stated)	inconclusive: 1.1e-09 M	
O=S(=O)(c1ccc(F)cc1)N1CN(Cc2ccco2)c2nc3ccccc3nc21	active: 2.6e-07 M	
O=C(c1c[nH]c2ccc(S(=O)(=O)N3CCOCC3)cc2c1=O)N1CCCC1	active: 8.8e-08 M	
O=C(NC(NCc1ccccn1)(C(F)(F)F)C(F)(F)F)c1ccco1	inconclusive: 2.6e-09 M	
NC(=O)c1c(-c2cccs2)csc1N	inconclusive: 1.8e-09 M	
Oc1cc(O)c2c(c1)O[C@@H](c1ccc(O)c(O)c1)[C@H](O[C@@]1(c3cc(O)c(O)c(O)c3)Oc3cc(O)cc(O)c3[C@H](O)[C@@H]1O)C2	inconclusive: 7.7e-09 M	
CCOC(=O)CC(=O)CSc1nc(N)c(C#N)c(-c2ccc(Cl)cc2)c1C#N	active: 8e-08 M	
O=c1c2ccccc2nc(SCc2nnc(-c3ccccc3)o2)n1-c1ccc(F)cc1F	inconclusive: 1.1e-09 M	

Entries of single compounds as entered above:
COCCn1c(=O)c(-c2ccccc2)nc2cncnc21 is listed with max dye-equivalent concentration: inconclusive: 1.6e-09 M
O=C(CSc1ncccn1)NCc1ccccc1Cl is listed with max dye-equivalent concentration: inconclusive: 1.2e-09 M

Additional records follow.

Structure (SMILES)	max dye-equivalent concentration	outcome
O=C(Nc1ccccn1)c1c(O)c2cccc3c2n(c1=O)CCC3	active: 2.1e-08 M	
CC1(C)CC(=O)C2=C(C1)N(c1ccccc1)C(N)=C(C#N)C2c1cccnc1 (configuration not stated)	active: 9.4e-08 M	
Nc1nc(N)c2nc(CNc3ccc(C(=O)N[C@H](CCC(=O)O)C(=O)O)cc3)cnc2n1	active: 1e-06 M	
CCCOP(=O)(c1ccc(N(C)C)cc1)C(O)c1ccccc1OC (configuration not stated)	inconclusive: 1.1e-09 M	
CC1(C)CC(=O)c2cc(C(=O)NC3CCSC3=O)c(=O)n(-c3ccccc3)c2C1 (configuration not stated)	inactive	
CS(=O)(=O)c1ccc2nc(NC(=O)CC3CCCC3)sc2c1	inconclusive: 1.8e-09 M	
COCCNC(=O)C(c1ccco1)N(C(=O)Cn1nnc2ccccc21)c1cc(C)ccc1C (configuration not stated)	inconclusive: 1.2e-09 M	
COC(=O)c1ccccc1NC(=O)C1CCCCC1C(=O)O (configuration not stated)	inconclusive: 7.5e-09 M	
CCCCC(NC(=O)c1ccc(Cl)cc1)C(=O)O (configuration not stated)	active: 2.4e-08 M	
CCCCNc1ccc(C(=O)OCCN(C)C)cc1	inconclusive: 2.1e-09 M and inconclusive: 1.1e-09 M	
N#Cc1ccccc1NC(=O)CSc1nccn1CCc1ccccc1	inconclusive: 6.1e-09 M	
Cc1cc(N2CCN(C(=O)c3ccco3)CC2)nc(-c2ccccc2)n1	active: 1.1e-08 M	
CCCC12CN3CC(C)(CN(C1)C3c1ccc(OC)cc1)C2=O (configuration not stated)	inactive	
COc1ccc(CCNC(=O)CC2Nc3ccccc3NC2=O)cc1OC (configuration not stated)	active: 2.3e-08 M	
Cc1ccc(S(=O)(=O)Cn2nnnc2CN(Cc2ccco2)Cc2cccs2)cc1	inconclusive: 1.2e-09 M	
COC(=O)C1C(=O)C2=C(CC1C)NC(=O)CC2c1ccccc1 (configuration not stated)	inconclusive: 4.6e-09 M	
CC(C)OC(=O)[C@H]1[C@H](c2ccc(Cl)cc2)[C@@](C#N)(C(N)=O)[C@@H]2C=CC(C(N)=O)=CN21	inconclusive: 8.3e-09 M	
CCOC(=O)N1CCN(C(=O)C2CCC(=O)N2C(C)C)CC1 (configuration not stated)	inconclusive: 3.2e-09 M	
O=C(N1CCN(CCO)CC1)N1c2ccccc2C=Cc2ccccc21	inactive	

Structure (SMILES)	max dye-equivalent concentration	outcome
O=C(O)Cn1cc(C(=O)c2ccco2)c2ccccc21	inconclusive: 3.2e-09 M	
COc1ccc2[nH]cc(CCNc3ncnc4ccc(-c5ccc6c(c5)OCO6)cc34)c2c1	inactive	
O=C(c1ccc(Cl)c(F)c1F)N1CCCC1	inactive	
COc1cc2ccccc2cc1C(=O)N1CCN(C)CC1	inactive	
Nc1nc2n(n1)C(c1ccco1)CC(c1ccccc1)N2 (configuration not stated)	inconclusive: 3.1e-09 M	
Cn1ncc2c1ncn1nc(COc3ccc4ccccc4c3)nc21	inconclusive: 2.4e-09 M	
CCOc1ccc(N/C(SC)=C(/C#N)C(N)=O)cc1	inconclusive: 4.7e-09 M	
O=c1c2ccccc2nnn1CSc1nnc2sc3ccccc3n12	inactive	
Cc1nc(NC(=O)COC(=O)C(NC(=O)c2ccco2)C(C)C)c(Cl)cc1Cl (configuration not stated)	inconclusive: 3.5e-09 M	
Cc1ccc(C(C(=O)NC2CCCC2)N(Cc2ccco2)C(=O)CCC(=O)Nc2ccccn2)cc1 (configuration not stated)	inactive	
O=C(CCCCCNS(=O)(=O)c1ccc(Br)cc1)NCCN1CCOCC1	inconclusive: 5.6e-09 M	
CN(Cc1cc2ccccc2[nH]c1=O)C(=O)C1CCCCC1	inconclusive: 1.5e-09 M	
O=C(NCc1cccnc1)C1c2ccccc2C(=O)N1Cc1ccco1 (configuration not stated)	inconclusive: 1.3e-09 M	
COc1ccccc1N1CCN(CCCCNC(=O)c2ccc3ccccc3c2)CC1	inconclusive: 9.9e-09 M	inactive
O=C(CCc1nc(-c2ccccc2F)no1)NC1CCCCC1	inconclusive: 1.5e-09 M	
Cc1cc(C(=O)CSc2nnc(N)s2)c(C)n1CCc1ccc(Cl)cc1	inconclusive: 2.6e-09 M	
CCOCCCn1c(C)nc2c(c1=O)c1nc3ccccc3nc1n2CCC1=CCCCC1	active: 4.6e-07 M	
CC(C)=C[C@H]1[C@@H](COC(=O)c2ccccc2Cl)C1(C)C	inactive	

From PubChem BioAssay AID590 (National Center for Advancing Translational Sciences (NCATS), 2007)
